These results are taken from patent US10738090B2, “Engineered microcompartment protein and related methods and systems of engineering bacterial systems for non-native protein expression and purification” (priority 2017, dated 2020).

The data set has as its system TOP10 E. coli. Kind of data set: Final OD600 of TOP10 E. coli cultures expressing the construct, arabinose inducible system. Format: cell-based. As to conditions: for OD600 after induction: TOP10, 40 μM arabinose, 4-5 h induction at 37° C.

B1: HB-EncK71^TEV (protein)
chain: MKWKSFIKKLTKAAKKVVTTAKKPLIVENLYFQGGGGGTEFLKRSFAPLTEKQWQEIDNRAREIFKTQLYGRKFVDVEGPYGWEYAAHPLGEVEVLSDENEVVKWGLRKGGENLYFQGGGSLPLIELRATFTLDLWELDNLERGKPNVDLSSLEETVRKVAEFEDEVIFRGCEKSGVKGLLSFEERKIECGSTPKDLLEAIVRALSIFSKDGIEGPYTLVINTDRWINFLKEEAGHYPLEKRVEECLRGGKIITTPRIEDALVVSERGGDFKLILGQDLSIGYEDREKDAVRLFITETFTFQVVNPEALILLK
Molecule B1 had an OD600 after induction of 2.7.

B2: HB-EncK71^TEVK138^TEV-His: HBCM2 fused to N-terminus of T. maritima encapsulin; TEV sites after K71 and K138, His-tag; non-cage forming (protein)
chain: MKWKSFIKKLTKAAKKVVTTAKKPLIVENLYFQGGGGGTEFLKRSFAPLTEKQWQEIDNRAREIFKTQLYGRKFVDVEGPYGWEYAAHPLGEVEVLSDENEVVKWGLRKGGENLYFQGGGSLPLIELRATFTLDLWELDNLERGKPNVDLSSLEETVRKVAEFEDEVIFRGCEKSGVKGLLSFEERKGGGGGENLYFQGHHHHHHGGGGGIECGSTPKDLLEAIVRALSIFSKDGIEGPYTLVINTDRWINFLKEEAGHYPLEKRVEECLRGGKIITTPRIEDALVVSERGGDFKLILGQDLSIGYEDREKDAVRLFITETFTFQVVNPEALILLK
In turn, B2 showed an OD600 after induction of 2.7.

B3: HB-EncD60^TEVK138^TEV-His: HB-Enc fusion with TEV site after D60 plus TEV-His insertion after K138; cage forming (protein)
chain: MKWKSFIKKLTKAAKKVVTTAKKPLIVENLYFQGGGGGTEFLKRSFAPLTEKQWQEIDNRAREIFKTQLYGRKFVDVEGPYGWEYAAHPLGEVEVLSDGGENLYFQGGGENEVVKWGLRKSLPLIELRATFTLDLWELDNLERGKPNVDLSSLEETVRKVAEFEDEVIFRGCEKSGVKGLLSFEERKGGGGGENLYFQGHHHHHHGGGGGIECGSTPKDLLEAIVRALSIFSKDGIEGPYTLVINTDRWINFLKEEAGHYPLEKRVEECLRGGKIITTPRIEDALVVSERGGDFKLILGQDLSIGYEDREKDAVRLFITETFTFQVVNPEALILLK
As for B3, the “cell density (OD600)” value (TOP10, arabinose induction, concentration not given) amounted to 2.3.
